Measured values taken from paper PMC10163288.
The other results are listed elsewhere or left out.

B1: il2ra_site1_1z92_normal_mot_HHH_b2_04375_000000267_0001_42_56_H_._92259d4fafaaaac0c6a0b9836689a3e9_0001_0001_0000200032_0000001_0_af2pred_0001_af2pred_1_swapped (protein)
chain: SEAIRRDIEKAEENGLPPRKVVRAVLRALELFLGDPEEAKRLLEEVLEKLLGDPEEARELVERAE
B2: il2ra_site2_3nfp_sap_18_mot_HHH_b1_07556_000000077_0001_42_55_H_._HHH_b2_07201_0001_0000400029_0000001_0_0001 (protein)
chain: SSSSDEEEEVKRSLEYLKAVAKLHNDEELQEVIEEAERILEEDNDPEKAAEALSEIALKLASSSS
B3: il2ra_site2_2erj_normal_mot_HHH_b1_04810_000000187_0001_1_15_H_._HHH_b2_06197_0001_0000600033_0000001_0 (protein)
chain: SSSSSDAEELVRLLWEALEAHLNGDEERLEELLEELEELAKEVPDEAVAELAEFFLRAARSSSSS
B4: il2ra_site1_1z92_sap_12_mot_HHH_b1_07323_af2_000000200_0001_41_57_H_._HHH_b2_07083_0001_0000300019_0000001_0_0001_af2pred_0001_af2pred (protein)
chain: NLNEEDLEEAVRKNDEELLRKFIELLLKDAGDPHRVKLLLKVLVRRLGLPPEVLERLEELLEELT
B5: il2ra_site1_3nfp_normal_mot_HHH_b1_05720_af2_000000239_0001_1_19_H_._HHH_b2_04752_0001_0000700034_0000001_0 (protein)
chain: SSSSSDVEERVEELLEQAEELNKEGDFKRALEAIEEVFRLIARLGNPELVRLLKEFLQKVSSSSS
B6: il2ra_site2_2erj_sap_15_mot_HHH_b2_03387_af2_000000185_0001_39_52_H_._HHH_b2_00372_0001_0000100005_0000001_0_0001_af2pred_0001_1_af2pred_swapped (protein)
chain: SSSSSEEIEKAVREEAEEAYERGDERLLKALLRLLRRFAERLNDPELEELLKFIEELLEELSSSS
B7: il2ra_site2_2erj_sap_24_mot_35d2dc24e2c4431f89e6f806b163ecf8_0001_af2_000000103_0001_35_49_H_._HHH_b2_07470_0001_0000100003_0000001_0_0001 (protein)
chain: SSSSSEEREELQELAVRLAELAARGNPEEARKVLEEAEKLAKELNDETFERYLRLAKKHLSSSSS
B8: il2ra_site2_2erj_normal_mot_8dc8e935950a1f8e5bdf62a2e89caa87_0001_af2_000000008_0001_1_13_H_._HHH_b1_07843_af2_0001_0000300006_0000001_0_af2pred_0001_1_af2pred_ … (protein)
chain: SSSSDEYEERIEELIREAEEALERGNPEEARHIIAEAIELALENNDDELLKELSELLRRIRSSSS
B9: il2ra_site2_3nfp_normal_mot_HHH_b1_05627_af2_000000038_0001_43_56_H_._HHH_b2_07136_0001_0000900027_0000001_0 (protein)
chain: SSSSDKRERYVEAAIEALRLAIEHNDPETLRSIFEAAEALAEDLGNEELLEEIRELYEEATSSSS
B10: il2ra_site2_2erj_sap_22_mot_HHH_b1_02841_000000003_0001_43_57_H_._HHH_b2_06425_0001_0000300014_0000001_0_0001 (protein)
chain: SSSSDLHRLYELAVRALALLANGNPEEAEEVLREAEELAEKLNSDNAKEHLEILRKRVENSSSSS
B11: il2ra_site1_2b5i_sap_19_mot_HHH_b2_04997_af2_000000138_0001_1_34_H_._HHH_b2_00677_0001_0000300015_0000001_0_0001 (protein)
chain: SSSSDREVDRRLVRFIFRLIWEFNLSAEESRKLSHIAVELMDEGVSEEEIEEILEEVAKESSSSS
B12: il2ra_site2_3nfp_sap_23_mot_HHH_b2_06150_000000217_0001_39_53_H_._HHH_b2_06303_0001_0000300030_0000001_0_0001 (protein)
chain: SSSSSEAEEYLRAALKLLELAIEEGDRFAFESTLRLVELAAKSNNDEEVEERVEELKERFKSSSS
B13: il2ra_site1_3nfp_normal_mot_HHH_b2_02477_af2_000000290_0001_1_16_H_._HHH_b2_04998_af2_0001_0000100002_0000001_0_af2pred_0001_af2pred (protein)
chain: SSSSSSREELEKLIEQANELYENGNPEEAKEVLEKALELAEELNSRAAARFIKAMLRTASSSSSS
B14: il2ra_site1_3nfp_normal_mot_HHH_b1_02435_af2_000000203_0001_40_57_H_._HHH_b1_02974_af2_0001_0000200008_0000001_0_af2pred_0001_1_af2pred_swapped (protein)
chain: SSSSEEEIRRALEEALELAFQGNFEEAEKVLREAEEIAKEINDEQKLKRIQFDLRSLELAKSSSS
B15: il2ra_site1_3nfp_sap_14_mot_HHH_b2_05809_000000010_0001_1_20_H_._HHH_b1_03964_af2_0001_0000100001_0000001_0_0001_af2pred_0001_af2pred (protein)
chain: SSSSDKRRRALELTREIKRLSREGDEEEARRLLEELEELARELGDPVLKILVKRLKEHIDSSSSS
B16: il2ra_site2_2erj_normal_mot_HHH_b1_05219_af2_000000227_0001_20_36_H_._76ac4eab7cc9a0b615a4d3e84633f487_0001_af2_0001_0000700039_0000001_0 (protein)
chain: DEELHVLFAAASALNDPELQRKVLELAEAFSNGEVPPEEVERIARELVRELGNEERLERIEKLAR
B17: il2ra_site1_3nfp_normal_mot_ems_3hC_775_af2_000000149_0001_42_60_H_._HEEHE_1486_af2_0001_0000300018_0000001_0 (protein)
chain: DTEESVEEAARLIAELAGVPSWEVEVHNGEVHVHLEGTDSQARHAARLIEFAARKFGVPVHVEVE
B18: il2ra_site1_3nfp_sap_8_mot_HHH_b1_03420_af2_000000029_0001_41_57_H_._ems_3hC_894_0001_af2_0001_0000200010_0000001_0_0001 (protein)
chain: DEEMQARAIAKLLKRAAGVESVEVEVENNEIEVTFKGNDEAVRRAAEAVRKLAKMLGIPVEIEVE

What follows are binders tested against il2ra, P01589 (assay: yeast display titration).

Binder	apparent Kd
B1	inactive: no binding seen
B2	inactive: no binding seen
B3	inactive: no binding seen
B4	inactive: no binding seen
B5	inactive: no binding seen
B6	inactive: no binding seen
B7	inactive: no binding seen
B8	inactive: no binding seen
B9	inactive: no binding seen
B10	inactive: no binding seen
B11	inactive: no binding seen
B12	inactive: no binding seen
B13	inactive: no binding seen
B14	inactive: > 1400 nM
B15	inactive: no binding seen
B16	inactive: no binding seen
B17	inactive: no binding seen
B18	inactive: no binding seen

Another view of some results above:

| Binder | apparent Kd |
| --- | --- |
| B16 | inactive: no binding seen |
| B17 | inactive: no binding seen |
